Assay results as given in the supplement of paper PMC10060354, “Discovery of a small molecule ligand of FRS2 that inhibits invasion and tumor growth” (Cellular Oncology, 2022).
Many values rest on one well or one pass, so single values are uncertain.

Amino acid sequences for entries named in this document (tags omitted). A change or cut given only in a name is not applied to a line headed by its entry.
UniProt Q92522: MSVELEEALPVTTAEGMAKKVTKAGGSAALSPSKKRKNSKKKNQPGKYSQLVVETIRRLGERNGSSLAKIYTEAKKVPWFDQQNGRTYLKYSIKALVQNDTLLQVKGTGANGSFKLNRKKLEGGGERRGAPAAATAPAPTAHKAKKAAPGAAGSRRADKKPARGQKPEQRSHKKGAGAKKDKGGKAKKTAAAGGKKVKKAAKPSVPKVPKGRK
UniProt Q96AE7: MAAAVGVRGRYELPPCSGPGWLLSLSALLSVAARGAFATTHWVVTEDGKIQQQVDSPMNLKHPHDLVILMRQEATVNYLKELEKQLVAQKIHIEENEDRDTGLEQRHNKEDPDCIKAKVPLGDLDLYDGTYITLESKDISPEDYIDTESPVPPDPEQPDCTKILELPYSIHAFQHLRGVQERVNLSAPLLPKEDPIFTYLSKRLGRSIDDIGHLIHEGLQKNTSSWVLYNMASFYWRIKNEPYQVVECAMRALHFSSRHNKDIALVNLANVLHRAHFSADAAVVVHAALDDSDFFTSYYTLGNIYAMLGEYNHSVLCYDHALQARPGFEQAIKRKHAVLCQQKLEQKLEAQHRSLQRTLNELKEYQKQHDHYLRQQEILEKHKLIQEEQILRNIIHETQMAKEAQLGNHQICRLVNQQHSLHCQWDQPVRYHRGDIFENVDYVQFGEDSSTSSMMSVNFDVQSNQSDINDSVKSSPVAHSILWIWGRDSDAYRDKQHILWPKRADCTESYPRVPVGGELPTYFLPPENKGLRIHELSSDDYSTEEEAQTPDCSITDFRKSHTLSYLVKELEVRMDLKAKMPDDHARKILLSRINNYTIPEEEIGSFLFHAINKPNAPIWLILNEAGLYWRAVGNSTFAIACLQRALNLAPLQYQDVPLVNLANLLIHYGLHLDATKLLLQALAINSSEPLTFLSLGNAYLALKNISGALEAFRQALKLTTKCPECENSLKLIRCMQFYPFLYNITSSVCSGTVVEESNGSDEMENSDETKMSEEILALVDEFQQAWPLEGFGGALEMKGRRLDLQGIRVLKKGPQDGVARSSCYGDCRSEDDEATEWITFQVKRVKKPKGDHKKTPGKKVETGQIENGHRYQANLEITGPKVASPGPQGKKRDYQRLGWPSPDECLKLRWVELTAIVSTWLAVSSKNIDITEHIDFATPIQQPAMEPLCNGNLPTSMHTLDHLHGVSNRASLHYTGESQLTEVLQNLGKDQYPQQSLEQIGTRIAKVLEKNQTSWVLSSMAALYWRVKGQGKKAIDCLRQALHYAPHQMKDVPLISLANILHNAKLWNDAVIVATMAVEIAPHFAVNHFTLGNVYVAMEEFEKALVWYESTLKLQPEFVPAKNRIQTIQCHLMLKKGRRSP
UniProt Q9NSQ0: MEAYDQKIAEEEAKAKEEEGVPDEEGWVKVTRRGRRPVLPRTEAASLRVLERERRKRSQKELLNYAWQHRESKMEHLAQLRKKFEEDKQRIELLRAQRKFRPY
UniProt P51151: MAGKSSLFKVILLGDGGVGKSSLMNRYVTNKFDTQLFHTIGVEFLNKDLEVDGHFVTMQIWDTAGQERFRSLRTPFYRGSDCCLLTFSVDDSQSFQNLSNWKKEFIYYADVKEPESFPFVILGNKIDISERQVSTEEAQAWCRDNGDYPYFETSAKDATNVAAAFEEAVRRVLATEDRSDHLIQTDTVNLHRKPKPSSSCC
UniProt Q5T160: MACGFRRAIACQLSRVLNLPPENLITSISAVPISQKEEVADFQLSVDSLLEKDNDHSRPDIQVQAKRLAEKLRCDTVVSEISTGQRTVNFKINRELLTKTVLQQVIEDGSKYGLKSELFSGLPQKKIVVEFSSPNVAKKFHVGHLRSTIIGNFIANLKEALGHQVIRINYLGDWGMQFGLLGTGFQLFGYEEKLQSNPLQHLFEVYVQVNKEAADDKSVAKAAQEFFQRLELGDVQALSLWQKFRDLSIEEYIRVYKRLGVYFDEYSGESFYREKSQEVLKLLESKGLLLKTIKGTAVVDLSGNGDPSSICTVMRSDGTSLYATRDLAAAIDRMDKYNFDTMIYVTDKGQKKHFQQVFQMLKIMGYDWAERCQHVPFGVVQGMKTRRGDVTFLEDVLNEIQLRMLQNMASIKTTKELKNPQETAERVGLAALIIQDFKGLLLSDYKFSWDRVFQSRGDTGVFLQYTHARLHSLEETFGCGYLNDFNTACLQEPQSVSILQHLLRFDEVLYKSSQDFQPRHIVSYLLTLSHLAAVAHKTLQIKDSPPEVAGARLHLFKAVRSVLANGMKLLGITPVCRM
UniProt P17707: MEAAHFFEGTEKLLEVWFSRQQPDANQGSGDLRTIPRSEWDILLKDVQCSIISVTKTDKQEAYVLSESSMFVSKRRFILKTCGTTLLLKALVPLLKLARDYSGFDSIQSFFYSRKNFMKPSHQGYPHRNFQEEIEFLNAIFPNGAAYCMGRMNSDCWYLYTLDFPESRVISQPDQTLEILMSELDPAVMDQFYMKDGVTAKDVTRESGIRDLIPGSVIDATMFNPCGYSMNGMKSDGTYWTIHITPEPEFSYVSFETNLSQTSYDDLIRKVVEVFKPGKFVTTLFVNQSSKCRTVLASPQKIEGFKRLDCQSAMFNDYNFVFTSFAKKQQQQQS
UniProt Q04941: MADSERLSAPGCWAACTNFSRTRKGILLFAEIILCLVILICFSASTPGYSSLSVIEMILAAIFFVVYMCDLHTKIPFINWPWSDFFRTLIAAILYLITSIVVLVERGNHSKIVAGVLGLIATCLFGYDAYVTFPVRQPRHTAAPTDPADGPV
UniProt Q15366, whole entry: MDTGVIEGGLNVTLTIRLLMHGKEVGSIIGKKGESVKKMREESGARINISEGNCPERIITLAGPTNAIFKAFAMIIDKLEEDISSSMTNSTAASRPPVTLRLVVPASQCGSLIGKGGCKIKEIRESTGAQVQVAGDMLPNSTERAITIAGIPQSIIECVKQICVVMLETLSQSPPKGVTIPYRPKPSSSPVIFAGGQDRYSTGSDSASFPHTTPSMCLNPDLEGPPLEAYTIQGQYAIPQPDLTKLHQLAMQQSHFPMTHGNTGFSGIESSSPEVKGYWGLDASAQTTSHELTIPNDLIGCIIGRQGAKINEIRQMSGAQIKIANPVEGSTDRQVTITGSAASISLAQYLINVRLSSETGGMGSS
UniProt P52209: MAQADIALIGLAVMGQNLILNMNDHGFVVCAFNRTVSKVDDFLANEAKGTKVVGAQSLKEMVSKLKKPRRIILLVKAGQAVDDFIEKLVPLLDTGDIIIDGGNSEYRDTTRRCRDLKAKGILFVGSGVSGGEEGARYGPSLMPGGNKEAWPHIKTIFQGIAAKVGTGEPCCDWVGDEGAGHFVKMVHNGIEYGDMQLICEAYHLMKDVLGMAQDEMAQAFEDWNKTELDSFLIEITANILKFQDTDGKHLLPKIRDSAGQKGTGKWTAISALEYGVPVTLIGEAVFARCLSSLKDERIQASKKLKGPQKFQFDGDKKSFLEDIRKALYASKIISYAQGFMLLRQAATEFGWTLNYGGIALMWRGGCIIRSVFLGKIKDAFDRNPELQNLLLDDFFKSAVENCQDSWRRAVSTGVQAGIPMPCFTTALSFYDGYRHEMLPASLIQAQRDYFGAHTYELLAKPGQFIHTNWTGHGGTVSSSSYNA
UniProt Q9UKW4: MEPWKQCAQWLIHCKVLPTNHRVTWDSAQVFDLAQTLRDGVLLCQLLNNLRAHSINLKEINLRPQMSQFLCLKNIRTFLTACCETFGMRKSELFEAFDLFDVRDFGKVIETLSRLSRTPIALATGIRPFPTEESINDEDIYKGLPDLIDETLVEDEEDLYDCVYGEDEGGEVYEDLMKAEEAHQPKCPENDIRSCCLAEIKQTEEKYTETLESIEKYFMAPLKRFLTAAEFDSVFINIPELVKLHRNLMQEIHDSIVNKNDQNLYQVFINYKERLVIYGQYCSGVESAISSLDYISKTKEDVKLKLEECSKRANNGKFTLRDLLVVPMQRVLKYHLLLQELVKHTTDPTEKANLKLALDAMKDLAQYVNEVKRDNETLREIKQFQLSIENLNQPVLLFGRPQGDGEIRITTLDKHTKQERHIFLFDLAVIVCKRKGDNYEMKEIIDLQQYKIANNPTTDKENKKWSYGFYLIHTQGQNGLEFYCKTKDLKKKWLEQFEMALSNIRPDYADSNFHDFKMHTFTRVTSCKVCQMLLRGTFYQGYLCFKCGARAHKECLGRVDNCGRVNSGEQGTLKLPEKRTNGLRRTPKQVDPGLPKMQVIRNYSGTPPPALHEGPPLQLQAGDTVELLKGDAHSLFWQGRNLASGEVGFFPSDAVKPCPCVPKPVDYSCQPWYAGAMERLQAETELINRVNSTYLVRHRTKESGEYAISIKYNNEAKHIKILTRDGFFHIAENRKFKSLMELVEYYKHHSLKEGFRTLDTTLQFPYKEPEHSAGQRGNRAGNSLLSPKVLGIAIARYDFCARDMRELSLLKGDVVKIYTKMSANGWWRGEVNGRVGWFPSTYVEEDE
UniProt Q9BTM9: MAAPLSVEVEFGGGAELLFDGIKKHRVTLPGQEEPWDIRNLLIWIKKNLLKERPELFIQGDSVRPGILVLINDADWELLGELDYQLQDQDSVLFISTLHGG
UniProt Q96F85: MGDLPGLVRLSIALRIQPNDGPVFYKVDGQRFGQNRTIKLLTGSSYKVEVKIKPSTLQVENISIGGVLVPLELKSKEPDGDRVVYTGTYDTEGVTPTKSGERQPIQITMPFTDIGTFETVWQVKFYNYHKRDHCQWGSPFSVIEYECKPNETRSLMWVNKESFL
UniProt Q96A57: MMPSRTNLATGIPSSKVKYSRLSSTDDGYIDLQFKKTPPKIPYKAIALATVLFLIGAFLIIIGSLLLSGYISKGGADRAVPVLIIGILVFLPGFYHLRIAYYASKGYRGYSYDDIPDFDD
UniProt O75746: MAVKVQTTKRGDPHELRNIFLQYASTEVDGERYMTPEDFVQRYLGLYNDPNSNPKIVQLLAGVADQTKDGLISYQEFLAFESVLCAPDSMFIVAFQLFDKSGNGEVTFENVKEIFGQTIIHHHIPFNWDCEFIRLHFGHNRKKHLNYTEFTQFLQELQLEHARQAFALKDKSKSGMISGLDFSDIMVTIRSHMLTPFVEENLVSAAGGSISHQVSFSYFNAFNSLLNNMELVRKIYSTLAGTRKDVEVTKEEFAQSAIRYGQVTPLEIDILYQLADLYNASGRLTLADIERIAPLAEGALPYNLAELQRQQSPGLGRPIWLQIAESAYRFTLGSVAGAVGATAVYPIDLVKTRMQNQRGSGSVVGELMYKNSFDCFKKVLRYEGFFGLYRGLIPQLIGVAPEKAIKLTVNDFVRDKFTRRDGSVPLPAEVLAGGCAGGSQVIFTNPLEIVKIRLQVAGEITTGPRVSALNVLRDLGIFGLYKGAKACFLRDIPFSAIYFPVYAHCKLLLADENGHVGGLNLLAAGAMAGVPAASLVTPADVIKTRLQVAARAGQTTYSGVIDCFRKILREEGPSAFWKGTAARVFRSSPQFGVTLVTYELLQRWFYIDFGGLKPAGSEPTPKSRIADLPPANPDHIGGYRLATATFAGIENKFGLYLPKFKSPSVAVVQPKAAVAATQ
UniProt Q96B97, whole entry: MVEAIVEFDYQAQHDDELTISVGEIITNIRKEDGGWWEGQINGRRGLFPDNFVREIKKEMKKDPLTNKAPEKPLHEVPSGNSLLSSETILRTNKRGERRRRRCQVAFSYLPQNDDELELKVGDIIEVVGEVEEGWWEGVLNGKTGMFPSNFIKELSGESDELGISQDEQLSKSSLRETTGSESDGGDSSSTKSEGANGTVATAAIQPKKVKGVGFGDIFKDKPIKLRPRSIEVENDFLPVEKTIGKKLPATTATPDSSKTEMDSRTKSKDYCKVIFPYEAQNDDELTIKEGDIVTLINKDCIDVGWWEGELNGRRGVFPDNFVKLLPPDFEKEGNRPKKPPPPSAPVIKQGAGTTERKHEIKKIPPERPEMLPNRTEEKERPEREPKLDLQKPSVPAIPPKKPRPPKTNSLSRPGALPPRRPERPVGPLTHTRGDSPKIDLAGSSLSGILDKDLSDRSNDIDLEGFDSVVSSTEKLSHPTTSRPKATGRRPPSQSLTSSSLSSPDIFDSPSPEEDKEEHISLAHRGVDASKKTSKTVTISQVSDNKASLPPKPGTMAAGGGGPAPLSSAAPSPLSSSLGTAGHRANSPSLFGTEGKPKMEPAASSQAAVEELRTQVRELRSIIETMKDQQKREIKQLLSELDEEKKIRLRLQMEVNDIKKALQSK
UniProt Q92844: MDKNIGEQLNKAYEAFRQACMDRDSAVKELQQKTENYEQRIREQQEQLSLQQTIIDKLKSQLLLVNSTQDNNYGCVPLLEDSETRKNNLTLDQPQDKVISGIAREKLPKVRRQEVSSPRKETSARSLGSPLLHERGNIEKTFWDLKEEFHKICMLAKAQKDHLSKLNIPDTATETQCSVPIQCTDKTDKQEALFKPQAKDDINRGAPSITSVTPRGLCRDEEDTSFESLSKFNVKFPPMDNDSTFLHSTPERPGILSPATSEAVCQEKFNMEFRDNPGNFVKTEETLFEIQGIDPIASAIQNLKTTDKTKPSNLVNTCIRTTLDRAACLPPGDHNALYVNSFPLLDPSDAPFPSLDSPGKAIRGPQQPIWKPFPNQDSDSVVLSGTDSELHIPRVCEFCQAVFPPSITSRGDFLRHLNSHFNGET

Compound: [O-][N+](C(C1=C(C(O)=C2)NC(C(C=C3)=CC=C3Cl)C4C1C=CC4)=C2Cl)=O
Experiment: melting temperature shift (compound 7 minus DMSO); higher = compound stabilises the protein
Conditions: 10 µM
Description: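 Thermal proteome profiling (TMT mass spectrometry) in intact DAOY medulloblastoma cells or DAOY lysates treated with 10 µM compound 7 or DMSO, heated at 10 temperatures from 40.5 to 73.8 °C for 3 min. Melting curves were fitted with the Bioconductor TPP package, and the melting point difference between compound and vehicle is reported per protein (single curve per condition).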

[1] = system: DAOY cell lysate, treatment time: 20 min, 4 °C
[2] = system: intact DAOY cells, treatment time: 90 min, 37 °C

| Target | melting temperature shift [1] [°C] | melting temperature shift [2] [°C] |
| --- | --- | --- |
| GLUD1 (UniProt P00367) | -0.0845 | -1.04 |
| VPS35 (UniProt Q96QK1) | -0.404 | -0.497 |
| RAP1GDS1 (UniProt P52306) | -0.197 | 0.0631 |
| UniProt P28676 | -0.276 | 0.528 |
| UniProt Q9Y6H8 | -2.34 |  |
| QDPR (UniProt P09417) | -0.22 | 0.385 |
| TCP11L1 (UniProt Q9NUJ3) | 0.765 | -0.663 |
| EIF3G (UniProt O75821) | -0.124 | 0.225 |
| H1FX (UniProt Q92522) | 0.852 | 0.233 |
| PTGFRN (UniProt Q9P2B2) | 1.97 | 0.811 |
| RBBP5 (UniProt Q15291) | 0.531 | 0.627 |
| PIN4 (UniProt Q9Y237) | 0.282 | -0.701 |
| GET4 (UniProt Q7L5D6) | -1.73 | 0.425 |
| RPS8 (UniProt P62241) | -0.153 | -0.914 |
| TTC17 (UniProt Q96AE7) | 1.37 |  |
| INF2 (UniProt Q27J81) | -0.223 | 0.378 |
| DHCR7 (UniProt Q9UBM7) | 0.61 | -1.47 |
| BMP2K (UniProt Q9NSY1) | 3.7 |  |
| SH3GLB1 (UniProt Q9Y371) | -1.12 | 0.000563 |
| UniProt O00763 |  | 0.482 |
| LARP7 (UniProt Q4G0J3) | -0.056 | -0.435 |
| UniProt Q9Y666 |  | -1.41 |
| UniProt Q96C12 |  | -2.21 |

| Target | melting temperature shift [1] [°C] | melting temperature shift [2] [°C] |
| --- | --- | --- |
| UniProt P43360 | -1.89 | 0.358 |
| ARHGAP28 (UniProt Q9P2N2) |  | -1.44 |
| NCBP2 (UniProt P52298) | -0.16 | 0.133 |
| KRR1 (UniProt Q13601) | 1.28 |  |
| ASAP2 (UniProt O43150) | 0.584 |  |
| APTX (UniProt Q7Z2E3) | 1.51 | 3.5 |
| UniProt O14933 | -1.87 | -1.19 |
| SLC30A5 (UniProt Q8TAD4) | 0.666 |  |
| AP3D1 (UniProt O14617) | -0.8 | -0.852 |
| UniProt Q96SL4 | -1.26 |  |
| UniProt Q8WTT2 | 1.1 |  |
| ZC3H7A (UniProt Q8IWR0) | -0.927 | 1.49 |
| TIAL1 (UniProt Q01085) | 0.427 | -0.377 |
| FBXO7 (UniProt Q9Y3I1) | -0.525 | -0.607 |
| UniProt P35626 |  | -1.32 |
| NOL11 (UniProt Q9H8H0) | 0.372 | 0.0968 |
| UniProt Q9UBV7 | 2.12 |  |
| BOLA3 (UniProt Q53S33) | -1.62 | -1.02 |
| ESF1 (UniProt Q9H501) | 0.596 |  |
| FLYWCH2 (UniProt Q96CP2) | 4.9 |  |
| UniProt Q6VEQ5 | -0.503 | 1.4 |
| STAT5A (UniProt P42229) | -0.55 | -0.512 |
| UniProt Q9NSQ0 | 0.185 |  |

| Target | melting temperature shift [1] [°C] | melting temperature shift [2] [°C] |
| --- | --- | --- |
| UniProt Q96NI8 |  | -0.306 |
| RAB9A (UniProt P51151) | 0.649 | -2 |
| TIMM50 (UniProt Q3ZCQ8) | 0.897 | -0.499 |
| EIF4A2 (UniProt Q14240) | -0.419 | -0.114 |
| SMYD4 (UniProt Q8IYR2) | -3.04 | -0.76 |
| SF3B4 (UniProt Q15427) | -0.213 | 0.427 |
| RARS2 (UniProt Q5T160) | 1.02 | -0.381 |
| UniProt Q07352 | -1.41 | -0.868 |
| NUDT3 (UniProt O95989) | -1.65 | -0.438 |
| UniProt P08247 |  | 6.1 |
| EIF2B5 (UniProt Q13144) | -0.513 | -1.13 |
| TRIP12 (UniProt Q14669) | -0.611 | 0.898 |
| TLE2 (UniProt Q04725) |  | 0.0556 |
| UniProt Q96EM0 | -0.381 | -1.02 |
| HSDL1 (UniProt Q3SXM5) | 1.04 | 0.852 |
| BCAS2 (UniProt O75934) | -0.236 | 1.6 |
| TNFAIP2 (UniProt Q03169) | -0.209 |  |
| CTNNA1 (UniProt P35221) | 0.478 | 0.0628 |
| TBCB (UniProt Q99426) | -0.392 | 0.734 |
| BICD2 (UniProt Q8TD16) | -0.384 | -0.0665 |
| PPAT (UniProt Q06203) | -0.83 | 1.09 |
| PPM1A (UniProt P35813) | -0.629 | 0.369 |
| HAUS1 (UniProt Q96CS2) | -1.04 | -0.0536 |

Laid out differently: entries from further up.
Target	melting temperature shift [1] [°C]	melting temperature shift [2] [°C]
TIMM50 (UniProt Q3ZCQ8)	0.897	-0.499
EIF4A2 (UniProt Q14240)	-0.419	-0.114
SMYD4 (UniProt Q8IYR2)	-3.04	-0.76
SF3B4 (UniProt Q15427)	-0.213	0.427
RARS2 (UniProt Q5T160)	1.02	-0.381
UniProt Q07352	-1.41	-0.868
NUDT3 (UniProt O95989)	-1.65	-0.438
UniProt P08247		6.1
EIF2B5 (UniProt Q13144)	-0.513	-1.13
TRIP12 (UniProt Q14669)	-0.611	0.898
TLE2 (UniProt Q04725)		0.0556
UniProt Q96EM0	-0.381	-1.02
HSDL1 (UniProt Q3SXM5)	1.04	0.852
BCAS2 (UniProt O75934)	-0.236	1.6
TNFAIP2 (UniProt Q03169)	-0.209	
CTNNA1 (UniProt P35221)	0.478	0.0628
TBCB (UniProt Q99426)	-0.392	0.734
BICD2 (UniProt Q8TD16)	-0.384	-0.0665
PPAT (UniProt Q06203)	-0.83	1.09
PPM1A (UniProt P35813)	-0.629	0.369
HAUS1 (UniProt Q96CS2)	-1.04	-0.0536

More entries

| Target | melting temperature shift [1] [°C] | melting temperature shift [2] [°C] |
| --- | --- | --- |
| GGNBP2 (UniProt Q9H3C7) | 0.504 |  |
| UniProt Q92674 | -2.06 | 0.0809 |
| AMD1 (UniProt P17707) | 0.353 | 0.537 |
| UniProt Q04941 | -4.01 |  |
| PSMG2 (UniProt Q969U7) | 0.159 | -0.609 |
| PCBP2 (UniProt Q15366) | 0.453 | -0.698 |
| STAT2 (UniProt P52630) | -0.026 | -1.85 |
| APEH (UniProt P13798) | -0.932 | 0.419 |
| UniProt Q9BT23 | -4.16 |  |
| CMBL (UniProt Q96DG6) | -1.51 | -0.21 |
| MRM3 (UniProt Q9HC36) |  | -0.626 |
| PGD (UniProt P52209) | -0.457 | -0.843 |
| UniProt P08123 | 0.438 | 0.0393 |
| UniProt Q96FN4 | 0.901 |  |
| UniProt Q9UKW4 |  | -3.65 |
| UniProt Q9BTM9 | 1.31 | -1.6 |
| UniProt Q86X51 | -0.338 | 0.356 |
| UniProt Q96F85 | -1.27 | 0.0807 |
| UniProt Q96A57 | 3.79 |  |
| LATS1 (UniProt O95835) | -0.868 |  |
| UniProt Q8WYP3 | -0.857 | 1.78 |
| POLRMT (UniProt O00411) | 4.04 |  |
| FAM162A (UniProt Q96A26) | 0.664 |  |

| Target | melting temperature shift [1] [°C] | melting temperature shift [2] [°C] |
| --- | --- | --- |
| CHD1 (UniProt O14646) | -0.958 |  |
| WWP2 (UniProt O00308) | 3.66 |  |
| ARFGAP2 (UniProt Q8N6H7) | -0.814 | -0.29 |
| C5ORF22 (UniProt Q49AR2) | -0.573 | 0.983 |
| SLC25A12 (UniProt O75746) | 0.284 | 0.0574 |
| DUT (UniProt P33316) | 0.4 | -2.48 |
| GLTSCR2 (UniProt Q9NZM5) | -0.275 | -0.481 |
| MRM1 (UniProt Q6IN84) | 0.737 |  |
| NRDC (UniProt O43847) | -0.73 | 0.24 |
| UniProt Q9UBR5 | 2.93 |  |
| CTH (UniProt P32929) | -1.15 | 3.34 |
| ARID4B (UniProt Q4LE39) | 1.16 |  |
| GMPPB (UniProt Q9Y5P6) | -1.04 |  |
| YY1 (UniProt P25490) | 1.64 | 0.526 |
| CAP1 (UniProt Q01518) | -0.133 | -0.07 |
| SEC62 (UniProt Q99442) | 0.389 | 1.04 |
| SH3KBP1 (UniProt Q96B97) | -0.0604 | 0.0854 |
| PIP4K2B (UniProt P78356) | -1.3 | 0.445 |
| RPS6KA5 (UniProt O75582) | -0.398 | -0.134 |
| DOCK7 (UniProt Q96N67) | -0.763 | -0.464 |
| UniProt Q96AX2 |  | -1.53 |
| PLBD2 (UniProt Q8NHP8) | 0.0395 | -1.96 |
| UniProt Q92844 | -9.1 |  |
